Laboratory results published in the supplement of paper PMC10849652.
The list shows a part of the results.

Chains of the proteins cited; added tags and fusions are not shown. Lines headed by an entry give the natural chain unless they say otherwise; changes in a name come on top.
UniProt P48960: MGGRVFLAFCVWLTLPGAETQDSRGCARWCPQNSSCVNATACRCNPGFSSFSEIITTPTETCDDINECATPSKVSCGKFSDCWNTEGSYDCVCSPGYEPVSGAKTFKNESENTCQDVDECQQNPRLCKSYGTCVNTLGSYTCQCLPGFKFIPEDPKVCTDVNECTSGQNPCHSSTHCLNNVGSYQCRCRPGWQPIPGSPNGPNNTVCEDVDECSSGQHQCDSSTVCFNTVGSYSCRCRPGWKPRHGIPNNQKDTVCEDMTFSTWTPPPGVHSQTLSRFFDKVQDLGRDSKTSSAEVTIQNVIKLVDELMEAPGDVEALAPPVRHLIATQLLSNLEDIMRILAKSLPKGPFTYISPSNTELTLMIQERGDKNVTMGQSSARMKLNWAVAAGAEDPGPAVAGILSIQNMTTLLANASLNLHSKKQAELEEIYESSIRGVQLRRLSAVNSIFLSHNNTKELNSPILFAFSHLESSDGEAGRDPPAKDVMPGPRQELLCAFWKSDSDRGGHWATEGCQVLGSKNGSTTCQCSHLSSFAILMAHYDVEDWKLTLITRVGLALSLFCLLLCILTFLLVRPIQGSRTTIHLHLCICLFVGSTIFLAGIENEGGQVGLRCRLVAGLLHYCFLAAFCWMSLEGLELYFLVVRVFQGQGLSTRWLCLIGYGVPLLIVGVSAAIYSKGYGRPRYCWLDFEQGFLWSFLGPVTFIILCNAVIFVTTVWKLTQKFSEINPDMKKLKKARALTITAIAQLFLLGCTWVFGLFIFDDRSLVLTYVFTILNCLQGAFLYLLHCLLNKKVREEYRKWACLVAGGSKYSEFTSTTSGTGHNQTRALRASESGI
UniProt Q00536: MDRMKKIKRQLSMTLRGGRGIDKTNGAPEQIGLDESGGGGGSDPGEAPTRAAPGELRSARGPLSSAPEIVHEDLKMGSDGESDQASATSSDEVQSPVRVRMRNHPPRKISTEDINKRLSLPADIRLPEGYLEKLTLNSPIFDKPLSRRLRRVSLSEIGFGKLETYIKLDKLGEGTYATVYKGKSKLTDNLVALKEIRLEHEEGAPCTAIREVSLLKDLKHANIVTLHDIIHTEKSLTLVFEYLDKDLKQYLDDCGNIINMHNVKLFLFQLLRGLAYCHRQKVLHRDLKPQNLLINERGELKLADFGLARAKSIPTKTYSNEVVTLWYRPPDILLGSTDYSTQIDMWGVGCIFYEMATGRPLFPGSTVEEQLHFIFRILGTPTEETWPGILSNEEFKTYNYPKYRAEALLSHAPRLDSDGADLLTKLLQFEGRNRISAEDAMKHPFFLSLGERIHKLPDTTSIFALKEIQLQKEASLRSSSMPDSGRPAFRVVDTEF
UniProt Q9H3Q1: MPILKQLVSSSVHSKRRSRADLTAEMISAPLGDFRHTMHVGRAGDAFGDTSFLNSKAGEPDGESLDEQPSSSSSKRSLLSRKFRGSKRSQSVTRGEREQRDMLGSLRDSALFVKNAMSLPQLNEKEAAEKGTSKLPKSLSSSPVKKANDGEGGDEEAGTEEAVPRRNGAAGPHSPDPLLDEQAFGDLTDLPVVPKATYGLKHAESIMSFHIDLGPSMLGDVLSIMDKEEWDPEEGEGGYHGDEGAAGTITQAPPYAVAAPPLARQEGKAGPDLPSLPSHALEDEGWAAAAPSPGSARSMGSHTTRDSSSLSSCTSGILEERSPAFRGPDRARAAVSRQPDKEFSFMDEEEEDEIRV
UniProt Q9UFW8: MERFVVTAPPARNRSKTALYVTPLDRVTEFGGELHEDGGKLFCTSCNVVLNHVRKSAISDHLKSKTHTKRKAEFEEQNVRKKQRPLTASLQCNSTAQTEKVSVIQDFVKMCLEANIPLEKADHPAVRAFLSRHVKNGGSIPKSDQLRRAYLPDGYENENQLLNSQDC
UniProt Q5VT06: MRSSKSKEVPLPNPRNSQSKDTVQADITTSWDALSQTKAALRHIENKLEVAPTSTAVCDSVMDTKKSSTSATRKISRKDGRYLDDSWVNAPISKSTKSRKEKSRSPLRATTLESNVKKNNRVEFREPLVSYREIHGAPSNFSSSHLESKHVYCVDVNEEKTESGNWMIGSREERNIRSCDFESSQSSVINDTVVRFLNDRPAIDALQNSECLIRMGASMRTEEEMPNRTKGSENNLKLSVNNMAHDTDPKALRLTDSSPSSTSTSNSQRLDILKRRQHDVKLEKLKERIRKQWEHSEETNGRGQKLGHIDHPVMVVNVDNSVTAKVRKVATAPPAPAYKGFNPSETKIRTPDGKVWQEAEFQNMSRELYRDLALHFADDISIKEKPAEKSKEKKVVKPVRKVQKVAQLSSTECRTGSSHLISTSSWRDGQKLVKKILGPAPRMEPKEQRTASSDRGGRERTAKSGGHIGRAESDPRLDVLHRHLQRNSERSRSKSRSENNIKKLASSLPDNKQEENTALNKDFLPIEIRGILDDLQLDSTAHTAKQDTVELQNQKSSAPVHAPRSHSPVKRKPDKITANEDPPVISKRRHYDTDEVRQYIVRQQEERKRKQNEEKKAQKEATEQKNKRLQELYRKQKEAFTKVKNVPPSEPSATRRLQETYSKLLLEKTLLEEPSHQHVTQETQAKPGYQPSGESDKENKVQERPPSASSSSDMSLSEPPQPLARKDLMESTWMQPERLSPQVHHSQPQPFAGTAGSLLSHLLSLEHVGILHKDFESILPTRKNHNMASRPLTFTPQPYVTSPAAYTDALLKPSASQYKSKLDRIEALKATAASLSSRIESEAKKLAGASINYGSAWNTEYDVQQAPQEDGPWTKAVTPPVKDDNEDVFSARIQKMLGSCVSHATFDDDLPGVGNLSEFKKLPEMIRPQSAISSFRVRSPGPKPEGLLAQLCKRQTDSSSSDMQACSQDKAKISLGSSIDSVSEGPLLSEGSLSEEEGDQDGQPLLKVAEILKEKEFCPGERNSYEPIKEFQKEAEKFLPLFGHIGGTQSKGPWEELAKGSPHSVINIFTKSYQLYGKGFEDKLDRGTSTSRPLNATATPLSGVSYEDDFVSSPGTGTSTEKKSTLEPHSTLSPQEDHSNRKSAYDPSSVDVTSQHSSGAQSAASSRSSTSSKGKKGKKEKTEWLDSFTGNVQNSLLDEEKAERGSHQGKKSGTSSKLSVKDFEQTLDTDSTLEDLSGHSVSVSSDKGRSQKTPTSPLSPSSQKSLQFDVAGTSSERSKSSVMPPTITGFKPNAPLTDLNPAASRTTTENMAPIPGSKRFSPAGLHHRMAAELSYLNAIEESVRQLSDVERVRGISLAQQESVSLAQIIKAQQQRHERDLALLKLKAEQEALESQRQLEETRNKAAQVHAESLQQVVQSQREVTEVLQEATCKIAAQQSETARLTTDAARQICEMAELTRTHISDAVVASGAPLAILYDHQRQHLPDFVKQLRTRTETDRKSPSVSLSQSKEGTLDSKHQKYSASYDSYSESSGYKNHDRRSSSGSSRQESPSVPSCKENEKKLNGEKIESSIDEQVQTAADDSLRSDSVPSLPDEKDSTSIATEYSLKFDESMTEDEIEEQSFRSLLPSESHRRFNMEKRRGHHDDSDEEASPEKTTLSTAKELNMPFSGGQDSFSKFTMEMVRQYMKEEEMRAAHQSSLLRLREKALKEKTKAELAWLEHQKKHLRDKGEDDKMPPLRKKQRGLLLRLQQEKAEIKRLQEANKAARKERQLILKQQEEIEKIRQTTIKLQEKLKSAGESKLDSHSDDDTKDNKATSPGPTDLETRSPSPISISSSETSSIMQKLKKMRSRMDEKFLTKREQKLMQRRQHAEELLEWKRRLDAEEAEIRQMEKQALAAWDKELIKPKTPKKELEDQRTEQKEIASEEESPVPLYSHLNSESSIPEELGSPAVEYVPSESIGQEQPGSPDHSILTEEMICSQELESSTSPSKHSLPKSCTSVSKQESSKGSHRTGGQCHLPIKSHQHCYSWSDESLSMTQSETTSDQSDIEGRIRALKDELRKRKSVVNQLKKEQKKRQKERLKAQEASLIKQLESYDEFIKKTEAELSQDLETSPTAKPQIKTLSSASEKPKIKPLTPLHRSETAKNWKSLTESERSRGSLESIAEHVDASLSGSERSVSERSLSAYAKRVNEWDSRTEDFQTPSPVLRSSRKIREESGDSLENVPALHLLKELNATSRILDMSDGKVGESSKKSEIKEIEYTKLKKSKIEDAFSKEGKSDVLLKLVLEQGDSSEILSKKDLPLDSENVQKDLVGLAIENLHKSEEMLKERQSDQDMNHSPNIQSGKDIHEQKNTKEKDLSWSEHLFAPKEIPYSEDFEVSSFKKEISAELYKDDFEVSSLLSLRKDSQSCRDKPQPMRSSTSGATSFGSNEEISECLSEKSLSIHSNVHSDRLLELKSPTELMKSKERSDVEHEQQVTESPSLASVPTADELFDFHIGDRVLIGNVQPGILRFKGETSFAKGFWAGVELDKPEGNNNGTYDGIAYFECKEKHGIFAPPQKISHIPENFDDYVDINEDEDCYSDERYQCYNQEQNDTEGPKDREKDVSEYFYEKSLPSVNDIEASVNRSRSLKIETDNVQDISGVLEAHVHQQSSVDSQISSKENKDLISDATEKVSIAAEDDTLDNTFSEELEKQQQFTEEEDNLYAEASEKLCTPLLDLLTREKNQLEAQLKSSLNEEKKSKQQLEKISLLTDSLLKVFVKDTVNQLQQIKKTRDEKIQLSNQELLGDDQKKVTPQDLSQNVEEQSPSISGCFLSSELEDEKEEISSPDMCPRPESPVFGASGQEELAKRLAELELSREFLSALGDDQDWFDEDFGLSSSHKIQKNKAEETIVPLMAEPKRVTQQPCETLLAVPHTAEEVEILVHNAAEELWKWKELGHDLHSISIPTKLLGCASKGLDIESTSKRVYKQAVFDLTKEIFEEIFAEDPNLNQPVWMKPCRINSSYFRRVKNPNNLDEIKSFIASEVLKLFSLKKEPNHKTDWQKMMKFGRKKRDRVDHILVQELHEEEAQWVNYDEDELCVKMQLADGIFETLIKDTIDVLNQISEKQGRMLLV
UniProt O15182: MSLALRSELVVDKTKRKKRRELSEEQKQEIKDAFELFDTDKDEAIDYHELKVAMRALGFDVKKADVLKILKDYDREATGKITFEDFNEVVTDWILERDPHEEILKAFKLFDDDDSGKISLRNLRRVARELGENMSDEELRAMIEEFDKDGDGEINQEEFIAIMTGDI
UniProt Q8N960: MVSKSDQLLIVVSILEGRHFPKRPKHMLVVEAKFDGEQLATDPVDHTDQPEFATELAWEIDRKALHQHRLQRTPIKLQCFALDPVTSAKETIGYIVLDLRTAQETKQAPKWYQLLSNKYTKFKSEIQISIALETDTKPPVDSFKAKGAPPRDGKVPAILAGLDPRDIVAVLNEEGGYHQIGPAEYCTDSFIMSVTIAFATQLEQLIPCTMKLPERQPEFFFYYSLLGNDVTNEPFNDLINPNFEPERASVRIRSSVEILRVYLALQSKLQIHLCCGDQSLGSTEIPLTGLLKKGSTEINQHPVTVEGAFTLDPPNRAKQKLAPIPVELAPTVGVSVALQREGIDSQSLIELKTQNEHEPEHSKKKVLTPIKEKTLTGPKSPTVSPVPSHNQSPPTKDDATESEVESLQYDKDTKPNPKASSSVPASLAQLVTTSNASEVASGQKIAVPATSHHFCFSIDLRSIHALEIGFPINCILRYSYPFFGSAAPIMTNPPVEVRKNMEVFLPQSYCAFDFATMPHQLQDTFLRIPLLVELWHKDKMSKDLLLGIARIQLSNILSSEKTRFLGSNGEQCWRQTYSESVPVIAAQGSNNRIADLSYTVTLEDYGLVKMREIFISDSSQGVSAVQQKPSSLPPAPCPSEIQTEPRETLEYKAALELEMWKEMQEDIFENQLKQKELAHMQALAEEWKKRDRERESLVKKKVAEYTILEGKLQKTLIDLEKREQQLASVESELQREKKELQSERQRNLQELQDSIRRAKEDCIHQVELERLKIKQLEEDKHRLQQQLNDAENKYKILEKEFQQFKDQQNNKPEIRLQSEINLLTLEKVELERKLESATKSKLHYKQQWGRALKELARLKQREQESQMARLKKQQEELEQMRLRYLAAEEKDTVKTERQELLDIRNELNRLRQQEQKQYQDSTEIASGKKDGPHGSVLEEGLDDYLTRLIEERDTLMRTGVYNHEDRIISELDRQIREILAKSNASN
UniProt Q86X02: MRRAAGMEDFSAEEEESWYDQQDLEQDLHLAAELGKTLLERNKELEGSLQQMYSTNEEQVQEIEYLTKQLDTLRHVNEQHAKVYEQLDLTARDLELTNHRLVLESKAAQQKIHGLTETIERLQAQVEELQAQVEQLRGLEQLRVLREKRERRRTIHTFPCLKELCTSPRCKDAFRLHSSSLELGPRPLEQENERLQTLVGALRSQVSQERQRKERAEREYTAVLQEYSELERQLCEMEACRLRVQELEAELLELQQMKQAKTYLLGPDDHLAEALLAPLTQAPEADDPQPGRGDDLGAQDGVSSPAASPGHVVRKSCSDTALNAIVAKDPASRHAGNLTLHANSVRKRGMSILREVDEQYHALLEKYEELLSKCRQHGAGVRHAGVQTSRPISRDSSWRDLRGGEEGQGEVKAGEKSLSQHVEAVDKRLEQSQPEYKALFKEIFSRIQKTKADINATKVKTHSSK

How the values were obtained:
Assay in all cases: log2 fold change, soluble protein after heating vs DMSO (PISA); higher = thermal stabilisation; K562 lysate, 10 uM; active = over 0.2 and 3.5 SD of the protein, either way, in both replicates (recomputed)
ibrutinib = compound: C=CC(=O)N1CCC[C@@H](n2nc(-c3ccc(Oc4ccccc4)cc3)c3c(N)ncnc32)C1 [ibrutinib]
Method in brief: (§1)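 Log-two fold change in thermal stability relative to solvent controls is reported from duplicates. For each sample, crude K562 extract from dounce-homogenised pellets in PBS pH 7.4 with 1 mM MgCl2, at 1 mg/mL protein, was treated with 10 μM compound for 30 min. Aliquots heated for 3 min across 48°C-58°C were pooled, brought to 0.5% NP-40 at 4°C and cleared at 21,000xg for 90 min. The supernatant was quantified by TMTpro 16plex LC-MS/MS with channel sums equalised.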

[1] = compound: CC(=O)c1cnc2ccc(-c3cc(Cl)c(O)c(Cl)c3)nc2c1N[C@H]1CC[C@H](CN(C)C)CC1
Method in brief: as §1

ralimetinib = compound: CC(C)(C)Cn1c(N)nc2ccc(-c3[nH]c(C(C)(C)C)nc3-c3ccc(F)cc3)nc21 [ralimetinib]
Method in brief: as §1

[2] = compound: CC(C)(O)CC(=O)NCCn1ccc2ncnc(Nc3ccc(Oc4cccc(C(F)(F)F)c4)c(Cl)c3)c21
Method in brief: as §1

[3] = compound: CC(C)C1=C2N=C(C=C(N2N=C1)NCC3=CC=CC=C3)NCCCCCCN
Method in brief: as §1

[4] = compound: CC1=C(C(CC(=O)N1)C2=CC=C(C=C2)C(F)(F)F)C(=O)NC3=C(C=C4C(=C3)C=NN4)F
Method in brief: as §1

[5] = compound: CC1=C(C2=C(C=C1)C(=O)C3=CC=CC=C3N2CCCN)C
Method in brief: as §1

[6] = compound: CC1=C(C=C(C=C1)NC(=O)C2=CC(=CC=C2)C(C)(C)C#N)NC3=CC4=C(C=C3)N=CN(C4=O)C
Method in brief: as §1

[7] = compound: CC1=C(C=C(C=C1)NC(=O)C2=CC(=CC=C2)N(C)C)NC(=O)C3=CC=C(C=C3)O
Method in brief: as §1

[8] = compound: CC1=CC=C(C=C1)SC2=C3C=C(SC3=CN=C2)C(=O)N
Method in brief: as §1

vemurafenib = compound: CCCS(=O)(=O)Nc1ccc(F)c(C(=O)c2c[nH]c3ncc(-c4ccc(Cl)cc4)cc23)c1F [vemurafenib]
Method in brief: as §1

[9] = compound: CCCS(=O)(=O)Nc1ccc(F)c(C(=O)c2c[nH]c3ncc(Cl)cc23)c1F
Method in brief: as §1

barasertib = compound: CCN(CCCOc1ccc2c(Nc3cc(CC(=O)Nc4cccc(F)c4)[nH]n3)ncnc2c1)CCOP(=O)(O)O [barasertib]
Method in brief: as §1

[10] = compound: CC[C@@H]1C(=O)N(C)c2cnc(Nc3ccc(C(=O)NC4CCN(C)CC4)cc3OC)nc2N1C1CCCC1
Method in brief: as §1

volasertib = compound: CC[C@@H]1C(=O)N(C)c2cnc(Nc3ccc(C(=O)N[C@H]4CC[C@H](N5CCN(CC6CC6)CC5)CC4)cc3OC)nc2N1C(C)C [volasertib]
Method in brief: as §1

[11] = compound: CCn1c(C(=O)N(C2CC2)C2CC2)cc2c3c(ncn3C)c(Nc3cc(C)n(C)n3)nc21
Method in brief: as §1

[12] = compound: CCn1cc(-c2ccnc3[nH]c(-c4cccc(CN(C)C)c4)cc23)c(-c2ccc(NC(=O)N(C)C)cc2)n1
Method in brief: as §1

[13] = compound: CN1CCC(CNc2ccc3ncc(-c4cccc(OC(F)(F)F)c4)n3n2)CC1
Method in brief: as §1

saracatinib = compound: CN1CCN(CCOc2cc(OC3CCOCC3)c3c(Nc4c(Cl)ccc5c4OCO5)ncnc3c2)CC1 [saracatinib]
Method in brief: as §1

sotrastaurin = compound: CN1CCN(c2nc(C3=C(c4c[nH]c5ccccc45)C(=O)NC3=O)c3ccccc3n2)CC1 [sotrastaurin]
Method in brief: as §1

Measured: log2 fold change

CD97 (UniProt P48960)
inactive: ibrutinib 0.003 | [1] 0.023 | ralimetinib -0.044 | [2] -0.016 | [3] 0.037 | [4] 0.038 | [5] 0.037 | [6] -0.045 | [7] 0.057 | [8] -0.021 | vemurafenib 0.056 | [9] 0.016 | barasertib -0.012 | [10] 0.065 | volasertib 0.048 | [11] -0.067 | [12] -0.026 | [13] 0.048 | saracatinib -0.04 | sotrastaurin 0.053

CEP290 (UniProt O15078)
inactive: ibrutinib -0.102 | [1] -0.003 | ralimetinib 0.101 | [2] -0.205 | [3] -0.057 | [4] -0.006 | [5] -0.043 | [6] 0.044 | [7] -0.018 | [8] -0.005 | vemurafenib -0.021 | [9] 0.021 | barasertib -0.169 | [10] 0.005 | volasertib -0.026 | [11] -0.046 | [12] -0.031 | [13] 0.018 | saracatinib 0 | sotrastaurin 0.017

CENPE (UniProt Q02224)
inactive: ibrutinib 0.063 | [1] 0.042 | ralimetinib 0.004 | [2] -0.038 | [3] 0.011 | [4] 0.019 | [5] 0.003 | [6] 0.005 | [7] 0.021 | [8] 0.013 | vemurafenib 0.004 | [9] -0.015 | barasertib 0.041 | [10] 0.091 | volasertib -0.075 | [11] -0.002 | [12] -0.085 | [13] 0.068 | saracatinib 0.026 | sotrastaurin 0.034

CDK16 isoform 2 (UniProt Q00536)
inactive: ibrutinib 0.025 | [1] 0.28 | ralimetinib 0.016 | [2] 0.009 | [3] -0.089 | [4] -0.023 | [5] -0.007 | [6] -0.037 | [7] -0.024 | [8] -0.141 | vemurafenib 0.03 | [9] 0.075 | barasertib 0.007 | [10] -0.006 | volasertib -0.175 | [11] -0.03 | [12] -0.027 | [13] 0.083 | saracatinib 0.03 | sotrastaurin 0.236

CDC42EP4 (UniProt Q9H3Q1)
inactive: ibrutinib 0.07 | [1] -0.014 | ralimetinib 0.034 | [2] -0.006 | [3] 0.01 | [4] 0.024 | [5] 0.026 | [6] 0.155 | [7] -0.018 | [8] -0.035 | vemurafenib 0.01 | [9] -0.01 | barasertib 0.013 | [10] 0.162 | volasertib 0.013 | [11] -0.04 | [12] -0.021 | [13] 0.042 | saracatinib -0.064 | sotrastaurin -0.012

CDK2 (UniProt P24941)
inactive: ibrutinib -0.031 | ralimetinib -0.038 | [2] 0.006 | [3] -0.036 | [4] -0.026 | [5] -0.016 | [6] -0.017 | [7] -0.003 | [8] -0.015 | vemurafenib -0.012 | [9] 0.012 | barasertib -0.01 | [10] -0.059 | volasertib -0.025 | [11] 0.008 | [12] -0.055 | [13] 0.167 | saracatinib -0.017 | sotrastaurin 0.09
active: [1] 0.362

CGGBP1 (UniProt Q9UFW8)
inactive: ibrutinib 0.024 | [1] -0.029 | ralimetinib 0.013 | [2] 0.015 | [3] 0.015 | [4] -0.023 | [5] -0.018 | [6] 0.018 | [7] 0.006 | [8] 0.001 | vemurafenib 0.008 | [9] 0.011 | barasertib -0.02 | [10] 0.02 | volasertib 0.043 | [11] -0.005 | [12] 0.021 | [13] 0.027 | saracatinib 0.059 | sotrastaurin 0.035

CDC5L (UniProt Q99459)
inactive: ibrutinib 0.03 | [1] 0.001 | ralimetinib 0.057 | [2] 0.037 | [3] 0.015 | [4] 0.003 | [5] -0.012 | [6] 0.02 | [7] 0.013 | [8] 0.031 | vemurafenib -0.011 | [9] 0.011 | barasertib 0.002 | [10] -0.07 | volasertib -0.037 | [11] 0.015 | [12] 0.051 | [13] -0.096 | saracatinib 0.012 | sotrastaurin 0.018

Reprinted at random: two records from the list
CDC5L (UniProt Q99459)
inactive: ibrutinib 0.03 | [1] 0.001 | ralimetinib 0.057 | [2] 0.037 | [3] 0.015 | [4] 0.003 | [5] -0.012 | [6] 0.02 | [7] 0.013 | [8] 0.031 | vemurafenib -0.011 | [9] 0.011 | barasertib 0.002 | [10] -0.07 | volasertib -0.037 | [11] 0.015 | [12] 0.051 | [13] -0.096 | saracatinib 0.012 | sotrastaurin 0.018

CGGBP1 (UniProt Q9UFW8)
inactive: ibrutinib 0.024 | [1] -0.029 | ralimetinib 0.013 | [2] 0.015 | [3] 0.015 | [4] -0.023 | [5] -0.018 | [6] 0.018 | [7] 0.006 | [8] 0.001 | vemurafenib 0.008 | [9] 0.011 | barasertib -0.02 | [10] 0.02 | volasertib 0.043 | [11] -0.005 | [12] 0.021 | [13] 0.027 | saracatinib 0.059 | sotrastaurin 0.035

Further records follow.

CEP350 (UniProt Q5VT06)
inactive: ibrutinib 0.092 | [1] 0.041 | ralimetinib 0.033 | [2] 0.02 | [3] 0.008 | [4] 0.008 | [5] 0.018 | [6] -0.027 | [7] 0.006 | [8] 0.065 | vemurafenib -0.03 | [9] -0.009 | barasertib 0.03 | [10] 0.008 | volasertib -0.009 | [11] 0.041 | [12] 0.104 | [13] -0.025 | saracatinib 0.019 | sotrastaurin 0.051

CDV3 (UniProt Q9UKY7)
inactive: ibrutinib 0.029 | [1] 0.016 | ralimetinib -0.021 | [2] -0.004 | [3] -0.031 | [4] -0.013 | [5] -0.01 | [6] -0.04 | [7] -0.012 | [8] -0.012 | vemurafenib -0.047 | [9] -0.02 | barasertib -0.026 | [10] 0.023 | volasertib 0.031 | [11] -0.04 | [12] -0.006 | [13] 0.032 | saracatinib 0.012 | sotrastaurin 0.031

CETN3 (UniProt O15182)
inactive: ibrutinib 0.046 | [1] 0.02 | ralimetinib 0.047 | [2] -0.095 | [3] -0.037 | [4] 0.019 | [5] 0.036 | [6] -0.102 | [7] 0.002 | [8] -0.012 | vemurafenib -0.048 | [9] 0.008 | barasertib -0.105 | [10] 0.018 | volasertib -0.028 | [11] 0.01 | [12] -0.028 | [13] -0.035 | saracatinib 0.003 | sotrastaurin 0.043

CDKN1C (UniProt P49918)
inactive: ibrutinib 0.002 | [1] -0.001 | ralimetinib 0.055 | [2] -0.045 | [3] 0.077 | [4] 0.017 | [5] 0.006 | [6] -0.032 | [7] 0.023 | [8] 0.005 | vemurafenib -0.275 | [9] -0.003 | barasertib -0.041 | [10] 0.027 | volasertib -0.066 | [11] 0.019 | [12] 0.073 | [13] 0.03 | saracatinib -0.14 | sotrastaurin -0.054

CEBPZ (UniProt Q03701)
inactive: ibrutinib -0.012 | [1] -0.007 | ralimetinib 0.013 | [2] -0.034 | [3] 0.041 | [4] 0.033 | [5] -0.002 | [6] -0.011 | [7] 0.024 | [8] 0.008 | vemurafenib -0.039 | [9] 0.039 | barasertib 0.014 | [10] 0.016 | volasertib -0.003 | [11] -0.004 | [12] -0.05 | [13] -0.016 | saracatinib 0.05 | sotrastaurin -0.005

CEP120 (UniProt Q8N960)
inactive: ibrutinib -0.02 | [1] -0.061 | ralimetinib -0.076 | [2] -0.132 | [3] 0.001 | [4] -0.174 | [5] -0.224 | [6] -0.015 | [7] 0.001 | [8] -0.085 | vemurafenib 0.052 | [9] -0.098 | barasertib 0.033 | [10] -0.411 | volasertib 0.029 | [11] -0.134 | [12] -0.233 | [13] 0.119 | saracatinib 0.008 | sotrastaurin 0.034

CDR2L (UniProt Q86X02)
inactive: ibrutinib 0.06 | [1] 0.039 | ralimetinib -0.013 | [2] -0.079 | [3] 0.043 | [4] -0.022 | [5] 0.055 | [6] -0.02 | [7] -0.035 | [8] -0.081 | vemurafenib 0.243 | [9] 0.05 | barasertib 0.01 | [10] 0.159 | volasertib -0.02 | [11] -0.012 | [12] 0.107 | [13] 0.042 | saracatinib -0.062 | sotrastaurin 0.038

CELF2 isoform 3 (UniProt O95319)
active: [6] -0.413
inactive: ibrutinib -0.016 | [1] 0.062 | ralimetinib -0.019 | [2] -0.015 | [3] 0.001 | [4] 0.025 | [5] 0.01 | [7] 0.018 | [8] 0.014 | vemurafenib 0.082 | [9] 0.013 | barasertib 0.031 | [10] 0.096 | volasertib -0.05 | [11] 0.001 | [12] 0.074 | [13] -0.095 | saracatinib 0.021 | sotrastaurin -0.023
